According to patent publication US7408025B2, “Lipopeptides as antibacterial agents” (priority 1999, dated 2008):
Part of at least one peptide drawing is inferred or uncertain, most often the ends.

Key:
S. aureus = assay: MIC, NCCLS broth microdilution, S. aureus; assay type: cell-based; conditions: Mueller-Hinton Broth with 50 mg/L Ca2+, 37° C.
E. faecalis = assay: MIC, NCCLS broth microdilution, E. faecalis; assay type: cell-based; conditions: Mueller-Hinton Broth with 50 mg/L Ca2+, 37° C.
[1] = test system: Methicillin Resistant S. aureus (ATCC 43300); assay: Mouse protection test, intraperitoneal MRSA infection; assay type: in vivo, female CD-1 mice; conditions: mice, MRSA #43300 i.p., s.c. × 2, calculated from survival at 7 days

With `CCCCCCCCCC(=O)NC(Cc1c[nH]c2ccccc12)C(=O)NC(CC(N)=O)C(=O)NC(CC(=O)O)C(=O)NC1C(=O)NCC(=O)NC(CCCNC(=O)C2Cc3c([nH]c4ccccc34)CN2)C(=O)NC(CC(=O)O)C(=O)NC(C)C(=O)NC(CC(=O)O)C(=O)NCC(=O)NC(CO)C(=O)NC(C(C)CC(=O)O)C(=O)NC(CC(=O)c2ccccc2N)C(=O)OC1C` (stereo not drawn) [Compound 70] the “MIC (μg/ml) S. aureus” value (S. aureus) was “+++ (the compound has an MIC (μg/ml) of 1 μg/ml or less)”, the “MIC (μg/ml) E. faecalis” value (E. faecalis) was “+ (the compound has an MIC (μg/ml) of greater than 10 μg/ml)” and the ED50 [1] was “The ED50 of compound 70 is calculated to be 1.51 mg/kg”.
